# Results of single-concentration screens

The chains behind the UniProt entries cited, without tags or fusion partners. Residues count along the entry.
UniProt A4I591, 1-473: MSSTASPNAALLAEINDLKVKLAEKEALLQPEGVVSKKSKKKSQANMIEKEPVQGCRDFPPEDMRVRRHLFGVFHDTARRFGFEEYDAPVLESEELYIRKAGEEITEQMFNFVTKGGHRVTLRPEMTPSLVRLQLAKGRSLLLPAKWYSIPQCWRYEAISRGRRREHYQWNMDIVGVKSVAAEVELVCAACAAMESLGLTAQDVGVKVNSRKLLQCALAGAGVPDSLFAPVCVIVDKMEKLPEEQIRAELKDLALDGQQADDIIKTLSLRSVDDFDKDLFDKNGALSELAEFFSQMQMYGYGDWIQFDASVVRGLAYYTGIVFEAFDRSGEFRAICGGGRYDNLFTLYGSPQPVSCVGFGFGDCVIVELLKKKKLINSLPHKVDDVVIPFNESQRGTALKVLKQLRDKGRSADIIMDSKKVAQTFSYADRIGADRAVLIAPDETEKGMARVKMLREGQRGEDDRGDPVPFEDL
UniProt I6X8D2, whole entry: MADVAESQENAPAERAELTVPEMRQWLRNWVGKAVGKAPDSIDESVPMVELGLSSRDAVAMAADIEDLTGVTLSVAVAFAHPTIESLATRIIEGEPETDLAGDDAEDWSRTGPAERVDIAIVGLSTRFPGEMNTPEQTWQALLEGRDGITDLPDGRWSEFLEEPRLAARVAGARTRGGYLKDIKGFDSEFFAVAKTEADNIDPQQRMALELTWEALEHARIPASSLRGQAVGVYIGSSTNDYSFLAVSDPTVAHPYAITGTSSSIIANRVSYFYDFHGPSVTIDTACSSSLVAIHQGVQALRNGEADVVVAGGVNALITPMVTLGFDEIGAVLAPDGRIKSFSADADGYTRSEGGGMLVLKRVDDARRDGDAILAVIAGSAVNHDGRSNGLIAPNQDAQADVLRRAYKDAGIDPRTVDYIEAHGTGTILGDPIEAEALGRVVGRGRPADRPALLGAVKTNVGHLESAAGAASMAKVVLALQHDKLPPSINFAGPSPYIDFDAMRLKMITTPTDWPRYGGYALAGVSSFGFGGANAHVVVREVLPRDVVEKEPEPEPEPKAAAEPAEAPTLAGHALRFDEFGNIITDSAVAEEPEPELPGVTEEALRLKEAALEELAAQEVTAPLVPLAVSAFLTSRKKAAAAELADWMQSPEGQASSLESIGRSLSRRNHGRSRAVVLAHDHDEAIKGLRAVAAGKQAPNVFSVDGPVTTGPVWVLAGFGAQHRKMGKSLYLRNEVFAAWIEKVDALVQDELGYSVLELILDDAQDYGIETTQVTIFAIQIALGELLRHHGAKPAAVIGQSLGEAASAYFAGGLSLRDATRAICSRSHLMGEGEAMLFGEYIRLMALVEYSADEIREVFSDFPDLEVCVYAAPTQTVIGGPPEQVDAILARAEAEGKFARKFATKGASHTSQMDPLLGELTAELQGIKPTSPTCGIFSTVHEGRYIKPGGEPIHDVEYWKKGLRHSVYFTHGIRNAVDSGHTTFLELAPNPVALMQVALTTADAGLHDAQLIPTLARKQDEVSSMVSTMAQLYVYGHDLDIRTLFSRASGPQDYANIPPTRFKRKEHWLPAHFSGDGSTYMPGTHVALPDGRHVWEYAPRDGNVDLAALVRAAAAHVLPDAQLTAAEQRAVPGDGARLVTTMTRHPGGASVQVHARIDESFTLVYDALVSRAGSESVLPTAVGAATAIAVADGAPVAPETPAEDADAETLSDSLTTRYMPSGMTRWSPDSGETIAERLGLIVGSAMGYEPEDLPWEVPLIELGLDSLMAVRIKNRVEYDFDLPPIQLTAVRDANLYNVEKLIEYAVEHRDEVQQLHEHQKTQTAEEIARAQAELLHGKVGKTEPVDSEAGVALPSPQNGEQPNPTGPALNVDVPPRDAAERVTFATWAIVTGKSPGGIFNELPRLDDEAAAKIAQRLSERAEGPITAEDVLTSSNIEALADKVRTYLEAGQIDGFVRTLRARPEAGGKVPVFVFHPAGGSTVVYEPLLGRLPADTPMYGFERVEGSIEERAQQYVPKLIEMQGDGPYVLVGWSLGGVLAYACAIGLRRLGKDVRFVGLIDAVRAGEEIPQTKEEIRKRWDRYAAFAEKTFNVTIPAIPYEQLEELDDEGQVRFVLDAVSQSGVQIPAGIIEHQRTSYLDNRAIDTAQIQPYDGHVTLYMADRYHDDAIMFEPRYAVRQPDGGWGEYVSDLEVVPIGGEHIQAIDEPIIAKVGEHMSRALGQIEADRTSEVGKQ
UniProt P9WFT3, whole entry: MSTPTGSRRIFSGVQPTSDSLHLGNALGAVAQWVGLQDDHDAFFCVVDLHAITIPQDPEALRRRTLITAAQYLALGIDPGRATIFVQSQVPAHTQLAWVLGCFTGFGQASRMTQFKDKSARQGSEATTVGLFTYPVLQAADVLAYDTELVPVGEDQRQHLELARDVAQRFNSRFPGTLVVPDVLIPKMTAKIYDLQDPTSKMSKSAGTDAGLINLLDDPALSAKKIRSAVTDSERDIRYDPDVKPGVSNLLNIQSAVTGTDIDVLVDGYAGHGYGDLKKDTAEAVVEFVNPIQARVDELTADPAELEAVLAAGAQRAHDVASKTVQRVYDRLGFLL
UniProt Q4DA54, 1-478: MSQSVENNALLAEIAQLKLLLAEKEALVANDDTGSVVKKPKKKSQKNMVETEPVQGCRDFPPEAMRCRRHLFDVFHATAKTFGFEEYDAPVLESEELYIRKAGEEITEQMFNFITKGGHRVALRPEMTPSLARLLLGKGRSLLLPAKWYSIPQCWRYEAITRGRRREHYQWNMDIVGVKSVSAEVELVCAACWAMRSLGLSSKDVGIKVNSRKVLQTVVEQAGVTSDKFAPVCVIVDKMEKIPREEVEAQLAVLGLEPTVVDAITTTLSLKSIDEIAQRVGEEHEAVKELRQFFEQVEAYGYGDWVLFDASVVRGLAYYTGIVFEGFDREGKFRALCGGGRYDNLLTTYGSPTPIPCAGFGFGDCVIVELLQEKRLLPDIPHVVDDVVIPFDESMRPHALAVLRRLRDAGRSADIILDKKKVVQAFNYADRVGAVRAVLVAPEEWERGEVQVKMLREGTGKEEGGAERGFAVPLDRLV

LiHisRS: 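Enzyme assay of histidyl-tRNA synthetase; the read-out is not stated. Target: Histidine-tRNA ligase, Leishmania infantum (UniProt A4I591). Compounds at 30 µM. Higher reads as stronger inhibition (inferred: compounds with an IC50 in retests scored well above the rest). The assay is labelled LdHisRS but filed under L. infantum. Size under these conditions: about 69,000 compounds, about 410 of them at 50% or above in at least one test.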
Pks13 thioesterase: 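Enzyme assay of the thioesterase domain of polyketide synthase 13; the read-out is not stated. Target: Polyketide synthase Pks13, Mycobacterium tuberculosis (UniProt I6X8D2). Compounds at 30 µM. Higher reads as stronger inhibition (inferred from which compounds were picked for retests). About 67,000 compounds were tested under these conditions; 0.46% (about 300) showed 50% or more at least once.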
MtTrpRS: 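Enzyme assay of tryptophanyl-tRNA synthetase; the read-out is not stated. Target: Tryptophan-tRNA ligase, Mycobacterium tuberculosis (UniProt P9WFT3). Compounds at 10 µM. Direction is not recorded; retested compounds ran higher, which suggests that high means inhibition. About 65,000 compounds were tested under these conditions; 0.098% (about 64) showed 50% or more at least once.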
TcHisRS: 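Histidine-tRNA ligase, Trypanosoma cruzi CL Brener (UniProt Q4DA54). Enzyme assay of histidyl-tRNA synthetase; the read-out is not stated. Concentration: 30 µM. The record gives no direction; compounds that gave an IC50 in retests scored well above the rest, so higher reads as stronger inhibition. Size under these conditions: about 69,000 compounds, about 31 of them at 50% or above in at least one test.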

Results are given as percent effect.
The record does not define 0% and 100%; most values in the screen are far below 50% and negative numbers occur (in some assays of this library far below -100).
Compounds were drawn at random from those tested, without regard to their results.
A dash means the value is not listed here; it may have been measured.

| # | Compound | LiHisRS | Pks13 thioesterase | MtTrpRS | TcHisRS |
|---|---|---|---|---|---|
| 1 | `CSCCCN1CCCC1c1noc(C(C)C)n1` (stereo not drawn) | 28.57 | -10.72 | -6.215 | 8.876 |
| 2 | `Cc1c(NC(=O)NCC(C)N2CCOCC2)cccc1OC(F)F` (stereo not drawn) | 19.23 | 1.207 | 5.629 | 4.813 |
| 3 | `CC(C)N1CCC(c2n[nH]cc2S(C)(=O)=O)CC1` | 12.68 | -10.57 | -8.764 | 5.385 |
| 4 | `COc1ccc(CNCC2CN(C3CC3)CCO2)cc1OC` (stereo not drawn) | 3.261 | 1.563 | 3.577 | -11.88 |
| 5 | `Cc1ccc2occ(CN3CCN(c4ncccn4)CC3)c(=O)c2c1` | 1.961 | -39.73 | 0.5757 | 3.704 |
| 6 | `O=C1OCCN1CCSc1nnnn1C1CCOCC1` | 12.82 | -10.72 | 4.562 | -2.299 |
| 7 | `O=C(C1CCC1)N1CCO[C@@H]2CNC[C@@H]21` | 8 | 10.53 | 10.06 | 6.897 |
| 8 | `CN(C)S(=O)(=O)c1cccc(NC(=O)Cc2ccon2)c1` | -1.667 | 6.431 | -3.735 | 2.597 |
| 9 | `Cc1cc(C(=O)N2CCC3(CCN3Cc3ccc(F)cc3)C2)no1` (stereo not drawn) | 15.53 | -25.88 | -3.8 | 5.825 |
| 10 | `O=C(NCc1ccco1)[C@H]1CC[C@@H]2[C@@H](CCN2c2ncc(F)cn2)O1` | 1.818 | 1.736 | -3.662 | 7.438 |
| 11 | `COc1cc2cc(C(=O)NC(C)C(=O)O)n(C)c2c(OC)c1OC` (stereo not drawn) | 11.84 | -28.14 | -3.653 | 6.522 |
| 12 | `CN1[C@H](CN2CCCC2)C[C@@H]2CN(C(=O)c3ccsc3)CC[C@@H]21` | 0.9174 | -47.53 | 8.624 | -2.404 |
| 13 | `Cc1cccc2sc(NC(=O)CN3CCCC4(CC3)CNC(=O)O4)nc12` (stereo not drawn) | 13.33 | -30.27 | -2.031 | 4.891 |
| 14 | `COc1ccc(-c2cn(CCSc3ncn[nH]3)nn2)cn1` | 13.98 | -87.68 | -7.545 | -41.36 |
| 15 | `O=C(c1ccsc1)N1CCO[C@@H]2CN(Cc3cccs3)C[C@@H]2C1` | 15.79 | -35.35 | -5.531 | 0 |
| 16 | `CC(=O)c1cccc(NC(=O)Cn2cc(-c3ccccc3)ncc2=O)c1` | 23.38 | -11.24 | 1.112 | 4.848 |
| 17 | `Cn1cc(CN2CCn3cc(CNC(=O)CC4CC4)nc3C2)cn1` | -2.941 | -5.6 | -3.045 | 0.9852 |
| 18 | `Fc1cccc(CN2CCC(c3n[nH]c4ncccc34)CC2)c1F` | 25 | -59.6 | -1.589 | 2.703 |
| 19 | `O=C(C1CC1)N1CCC2(COCc3cnc(NCc4ccco4)nc32)C1` (stereo not drawn) | 11.11 | -12.44 | -6.08 | 8.411 |
| 20 | `CNc1cnc(CC2COCCN(Cc3cccc(C)n3)C2)cn1` (stereo not drawn) | 15.71 | 9.873 | -2.889 | 14.18 |
| 21 | `CCN1C(=O)CC[C@@H]2N(C(=O)CCn3nccc3C)CCCC[C@@]21C` | 15.71 | - | -1.339 | 8.812 |
| 22 | `CN1CCC(N2CCN3C(=O)NC[C@H]3C2)CC1` | 18.92 | 4.143 | -3.585 | -1.493 |
| 23 | `CCn1ccnc1CN1CCN(C(C)C(=O)N2CCC(C)CC2)CC1` (stereo not drawn) | 6.154 | -6.735 | -0.09719 | -0.3831 |
| 24 | `Cc1cc(C)cc(CCC(=O)NC(C)c2nnn[nH]2)c1` (stereo not drawn) | 3.125 | -8.555 | -5.74 | 4.469 |
| 25 | `Cc1ccc(OCC(=O)N(C)Cc2cccc(F)c2)cn1` | 16.67 | -5.632 | -2.386 | 6.897 |
| 26 | `O=C1NCCCC12CCN(S(=O)(=O)N1CCOCC1)C2` (stereo not drawn) | 14.75 | -5.76 | -5.039 | -1.01 |
| 27 | `CCC(NC(=O)c1cc(OC)c2c(c1)OCCO2)c1cccs1` (stereo not drawn) | 15.32 | -10.99 | 2.089 | 11.67 |
| 28 | `Cc1noc([C@@H](C)NCc2cccc(Cl)c2)c1C(=O)O` | 0 | 13.96 | -3.89 | 1.493 |
| 29 | `Cc1nc(CN(C)S(=O)(=O)c2ccc(F)cc2Br)no1` | 15.56 | -19.68 | -1.961 | 6.667 |
| 30 | `CSCC(C)(O)CNC(=O)Nc1cc(C)cc(C)c1` (stereo not drawn) | 12.17 | -12.84 | -2.964 | 4.124 |
| 31 | `CC(C)C(=O)N1CCCC2(CC(C(=O)NCc3cccnc3)=NO2)C1` (stereo not drawn) | 11.43 | -4.225 | -2.604 | 6.863 |
| 32 | `Cc1ccc2c(c1)C(=O)NCC1(CCN(C(=O)c3cnccn3)CC1)O2` | 6 | -5.252 | - | 4.494 |
| 33 | `CCn1ncc2c1C(COCC1CC1)CN(C(=O)c1ccncn1)C2` (stereo not drawn) | 10.09 | -0.6272 | 1.91 | 9.244 |
| 34 | `CCCc1cc(C(=O)N2C[C@H](O)[C@@H](N3CCCC3)C2)ccn1` | 14.75 | -32.82 | 2.52 | 0 |
| 35 | `O=C(c1cc(COc2ccc3c(c2)OCO3)[nH]n1)N1CCCC1` | 5.714 | -7.21 | -7.484 | 4.132 |
| 36 | `O=C(Nc1cnc(Oc2ccccc2F)nc1)C1CC1` | 12.17 | 4.329 | -2.812 | 2.062 |
| 37 | `CC(C)c1nc(CN(C)Cc2ccc(O)c(C(=O)O)c2)cs1` | 23.38 | -26.53 | -2.472 | 2.424 |
| 38 | `COCCN(CCOC)c1ncccc1I` | 5.983 | 14.21 | -0.1715 | 4.444 |
| 39 | `CCOc1ccc(Cl)c(C(=O)NCCC(=O)Nc2ccccn2)n1` | 17.59 | -28.11 | 6.15 | 7.918 |
| 40 | `CC(C)n1ncc2c1NC(=O)CC21C(=O)Nc2c(Br)cc(Cl)cc21` (stereo not drawn) | 7.895 | -38.18 | 3.711 | 1.754 |
| 41 | `CCc1[nH]ncc1C(=O)N1CCCC(n2nc(C)cc2C)C1` (stereo not drawn) | 8.929 | -6.888 | 1.428 | 4.035 |
| 42 | `COc1cccc(CCC(=O)N2CCCC(n3cc(C)cn3)C2)c1` (stereo not drawn) | 0 | -4.575 | 3.021 | 3.383 |
| 43 | `COc1c(C(=O)NCC(C)Sc2ccccc2)c(C)nn1C` (stereo not drawn) | 2.667 | -17.82 | -7.834 | -4.891 |
| 44 | `CC(C)c1ccc(OCC(=O)NS(=O)(=O)c2cccnc2)cc1` | 3.67 | -18.13 | 0.728 | 7.647 |
| 45 | `COCCNC(=O)[C@H]1C[C@H]2OCC[C@H]2N(Cc2ccoc2)C1` | 14.71 | -49.02 | -4.691 | 6.897 |
| 46 | `O=C(c1csc(-c2ccco2)n1)N(CC1CCOC1)C1CC1` (stereo not drawn) | -27.4 | 2.624 | -5.204 | 7.027 |
| 47 | `O=C(c1nnn(-c2ccc(C(F)(F)F)cc2)n1)N1CC(O)C1` | 13.91 | -26.18 | -2.204 | -1.031 |
| 48 | `NC(=O)C1Cc2ccccc2CN1CCC(=O)N1CCc2ccccc21` (stereo not drawn) | 13.73 | -32.11 | -3.372 | 9.877 |
| 49 | `O=C(CCc1ccccc1)NCC1CCN(Cc2ccsc2)CC1` | 14.56 | -5.051 | -3.859 | 4.348 |
| 50 | `COCC1CN(Cc2c(C)noc2C)Cc2cn(C)nc21` (stereo not drawn) | 27.78 | 5.297 | 4.74 | -1.493 |
| 51 | `COC(=O)CNC(=O)N1CCN(c2nc3ccccc3n2C)CC1` | 17.98 | -11.2 | -0.5869 | 1.508 |
| 52 | `COC(C)(C)c1noc(C2(C#N)CCCCC2)n1` | 0 | -10.36 | -5.909 | -2.618 |
| 53 | `CCc1noc(C(C)N(C)Cc2cc(Br)ccc2OC)n1` (stereo not drawn) | 14 | 9.441 | -4.633 | 9.639 |
| 54 | `O=C(c1ccoc1)N1C[C@@H]2[C@@H](C1)OCC(=O)N2Cc1cccnc1` | 15.04 | -30.63 | 4.064 | 0 |
| 55 | `CCc1nc(NCCCn2cccn2)c2c(n1)c(C)nn2CC` | 12.07 | -2.245 | 0.9067 | 3.478 |
| 56 | `Cc1cc2n(n1)CC(CNC1CCN(C3CC3)CC1)CN2` (stereo not drawn) | 16.39 | -31.8 | -2.726 | 1.163 |
| 57 | `Cc1cnn(CC2CCCN2C(=O)CCc2ccncc2)c1` (stereo not drawn) | 18.58 | -20.11 | 3.135 | 6.706 |
| 58 | `Cc1oc(-c2ccsc2)nc1CNC(C)Cn1cccn1` (stereo not drawn) | 3.896 | 1.959 | 12.07 | 4.433 |

The last 4 entries again:

- CCc1nc(NCCCn2cccn2)c2c(n1)c(C)nn2CC : LiHisRS: 12.07%; Pks13 thioesterase: -2.245%; MtTrpRS: 0.9067%; TcHisRS: 3.478%
- Cc1cc2n(n1)CC(CNC1CCN(C3CC3)CC1)CN2 (stereo not drawn) : LiHisRS: 16.39%; Pks13 thioesterase: -31.8%; MtTrpRS: -2.726%; TcHisRS: 1.163%
- Cc1cnn(CC2CCCN2C(=O)CCc2ccncc2)c1 (stereo not drawn) : LiHisRS: 18.58%; Pks13 thioesterase: -20.11%; MtTrpRS: 3.135%; TcHisRS: 6.706%
- Cc1oc(-c2ccsc2)nc1CNC(C)Cn1cccn1 (stereo not drawn) : LiHisRS: 3.896%; Pks13 thioesterase: 1.959%; MtTrpRS: 12.07%; TcHisRS: 4.433%

Source: ChEMBL document CHEMBL3988442, “University of Dundee, Small-Polar-MMV Screening Library” (2021).